The data set relates to plasma UR. The data set can be described thus: Plasma UR concentration versus plasma Compound 1 concentration after continuous sc osmotic-pump infusion. It counts as in vivo. Particulars: FIG. 1; continuous sc infusion 667, 833 or 3000 mg/kg/day, BDF-1 male mice. As to the method:
For this reason continuous infusion of compound I (authentic TK-112690, Batch TCY90108) to BDF-1 ♂ mice were administered via a sc implanted osmotic pumps and the UR plasma concentration measured, ^46 Deng Y, Wang Z V, Gordillo R, An Y, Zhang C, Liang Q, Yoshino J, Cautivo K M, De Brabander J, Elrnquist J K, Horton J D, Hill J A, Klein S, Scherer P E. An adipo-biliary-uridine axis that regulates energy homeostasis. Science 2017, 17; 355(6330)
Solutions of Compound I were prepared at a concentration of 500 mg/mL in sterile PBS. Osmotic pumps (ALZET® micro-osmotic pump 2001 D and 1003D, Alza Co) were loaded with 200 μL (2001D osmotic pump) and/or 100 μL (1003D osmotic pump) of TK-112690 solution.
BDF-1 male mice (n=6) were treated with a constant-rate infusion of 667, 833 or 3000 mg/kg/day doses of Compound I delivered via subcutaneously implanted osmotic pumps. Animals were anesthetized with 100 mg/kg ketamine prior to pump implantation. Surgical scissors were used to make an approximately 1 cm incision on the dorsal surface near the shoulder blade of animals. A hemostat was used to carve out a subcutaneous tunnel toward the anterior end of animal. Osmotic pumps were placed inside the subcutaneous tunnel. […]
A solid-phase extraction (SPE) of analytes (UR, Compound I and 5-FU) from plasma was conducted before HPLC analysis. […] Samples were transferred into fresh HPLC vials and analyzed. […]

The structures appear in SMILES notation.

With `Cc1cn2c(nc1=O)O[C@H]1[C@H](O)[C@@H](CO)O[C@H]12` [Compound 1], the “slope of regression line, plasma UR concentration versus plasma Compound 1 concentration” value stood at 0.010.

Values taken from US12667571B2, “Uridine phosphorylase (UPase) inhibitors for treatment of liver conditions” (Tosk, Inc., priority 2019, dated 2026).
